Assay results as given in paper PMC7862700.
This is a selection; strong and weak results do not stand in their true shares. For part of these data: At the low end of the ranking the order means little. Some of the results follow. For part of these data: The exact form of the protein is not confirmed.

Legend:
Assay in all cases: DAPPL (digital affinity profiling via proximity ligation, sequencing)
Conditions in all cases: 10 mM Tris-HCl pH 7.5, 50 mM NaCl, 1 mM DTT, 4% glycerol, room temperature, 30 min; GST-TFs on glutathione beads, 16-mer random dsDNA library, 0.1% …; high values mean tight binding; double strand, one strand shown; scale: fold enrichment (6-mer frequency, TF over GST control)
GABPA = target: T1, GABPA (UniProt Q06546)
T1 sequence: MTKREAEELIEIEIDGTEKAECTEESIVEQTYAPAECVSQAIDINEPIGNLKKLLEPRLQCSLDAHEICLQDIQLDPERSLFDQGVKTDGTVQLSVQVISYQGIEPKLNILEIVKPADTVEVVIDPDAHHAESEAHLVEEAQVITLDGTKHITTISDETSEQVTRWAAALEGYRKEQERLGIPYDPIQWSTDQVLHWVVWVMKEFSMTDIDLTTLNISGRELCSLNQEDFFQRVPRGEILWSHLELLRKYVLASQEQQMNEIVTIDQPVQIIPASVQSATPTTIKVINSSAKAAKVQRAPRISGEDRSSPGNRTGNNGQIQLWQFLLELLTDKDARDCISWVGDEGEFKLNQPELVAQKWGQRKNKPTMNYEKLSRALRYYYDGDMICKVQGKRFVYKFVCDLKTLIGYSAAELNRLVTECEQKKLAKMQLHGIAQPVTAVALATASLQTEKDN

ETS1 = target: T2, ETS1 (UniProt P14921)
T2 sequence: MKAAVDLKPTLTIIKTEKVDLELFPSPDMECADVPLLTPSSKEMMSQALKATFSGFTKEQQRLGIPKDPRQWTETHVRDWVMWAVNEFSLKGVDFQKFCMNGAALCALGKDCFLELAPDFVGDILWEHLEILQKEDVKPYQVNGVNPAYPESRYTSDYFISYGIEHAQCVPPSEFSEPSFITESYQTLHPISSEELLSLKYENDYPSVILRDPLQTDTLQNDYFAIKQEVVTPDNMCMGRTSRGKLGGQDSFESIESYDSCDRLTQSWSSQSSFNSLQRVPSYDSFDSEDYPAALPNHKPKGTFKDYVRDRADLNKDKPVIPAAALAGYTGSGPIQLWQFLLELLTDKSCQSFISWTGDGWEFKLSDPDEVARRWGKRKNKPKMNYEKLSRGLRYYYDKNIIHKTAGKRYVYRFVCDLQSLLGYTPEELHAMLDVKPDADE

SPDEF = target: T3, SPDEF (UniProt O95238)
T3 sequence: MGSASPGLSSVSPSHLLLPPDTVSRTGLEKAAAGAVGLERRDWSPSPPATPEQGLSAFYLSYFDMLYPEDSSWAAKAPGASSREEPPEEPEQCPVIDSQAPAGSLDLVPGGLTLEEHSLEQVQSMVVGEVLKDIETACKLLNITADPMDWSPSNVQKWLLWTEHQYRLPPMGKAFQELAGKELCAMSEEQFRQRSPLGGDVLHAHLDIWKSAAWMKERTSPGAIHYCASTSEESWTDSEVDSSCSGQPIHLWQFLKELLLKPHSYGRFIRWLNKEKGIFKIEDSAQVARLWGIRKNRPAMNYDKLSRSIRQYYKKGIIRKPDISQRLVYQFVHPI

Row | Sequence | binding signal (GABPA) | binding signal (ETS1) | binding signal (SPDEF)
1 | GCACGG | 0.762 | 0.785 | 0.825
2 | TCAGAG | 0.79 | 0.778 | 0.731
3 | GGTGGG | 0.624 | 0.592 | 0.675
4 | GGCTGG | 0.722 | 0.733 | 0.715
5 | ATCAGT | 0.835 | 0.805 | 0.909
6 | GCATTG | 0.82 | 0.774 | 0.688
7 | GCCCAG | 0.718 | 0.819 | 0.671
8 | GCATGA | 0.872 | 0.757 | 0.825
9 | CAGGGA | 0.478 | 0.497 | 0.508
10 | TGAGTA | 0.404 | 0.441 | 0.382
11 | GGACGG | 0.48 | 0.534 | 0.547
12 | AGGGTC | 0.857 | 0.897 | 0.876
13 | CCAGGT | 0.763 | 0.773 | 0.689
14 | GATCGT | 0.418 | 0.407 | 0.426
15 | GAAGGC | 0.896 | 0.78 | 0.842
16 | CGGAGA | 0.2 | 0.218 | 0.23
17 | AGGGCC | 0.979 | 0.902 | 0.916
18 | AGGCGT | 0.511 | 0.514 | 0.491
19 | GTGAGT | 0.136 | 0.122 | 0.134
20 | GGGCCA | 0.735 | 0.696 | 0.672
21 | GCATCG | 0.847 | 0.797 | 0.73
22 | GGGGTA | 0.781 | 0.747 | 0.716
23 | GGAAAG | 0.918 | 0.851 | 0.913
24 | GTCGTG | 0.365 | 0.438 | 0.369
25 | CGGTAG | 0.599 | 0.635 | 0.706
26 | GTCGCC | 0.862 | 0.878 | 0.886
27 | CAGTCG | 0.185 | 0.157 | 0.173
28 | TCAGGC | 0.691 | 0.753 | 0.731
29 | GGGAGT | 0.242 | 0.226 | 0.226
30 | GGGGTG | 0.764 | 0.729 | 0.671
